Data: PMC6413085, “A Validated HPLC-MS/MS Assay for 14-O-[(4,6-Diaminopyrimidine-2-yl)thioacetyl] Mutilin in Biological Samples and Its Pharmacokinetic, Distribution and Excretion via Urine and Feces in Rats” (Molecules, 2019)
The source gives many values for each of these; only a part stands here.

Experiment: Stability of DPTM in plasma, tissue homogenates, urine and feces (QC samples)
Format: physicochemical, rat
Procedure: Stability of DPTM and IS was examined by comparing the analytes’ concentrations in freshly prepared samples with those of samples maintained under different conditions, including the 24 h storage at room temperature, three freeze and thaw cycles, and storage at −70 °C for 4 weeks, respectively. Analyzing three levels of QC samples were used to assess the stability (accuracy and precision) with six replicates.
For the construction of calibration curves, 20 μL of each corresponding standard working solution (0.05, 0.2, 0.5, 1, 2, 5, 10, 20 and 40 μg/mL) was evaporated to dryness by nitrogen at 40 °C. The calibration standards (5, 20, 50, 100, 200, 500, 1000, 2000 and 4000 ng/mL) were prepared by adding 200 μL of blank plasma, various tissue homogenates (including heart, liver, spleen, lung, kidney, large intestine, small intestine, ileum, cecum, bladder, brain, jejunum and colon) or urine and feces to the residue, respectively. Quality control (QC) samples (10, 200 and 3000 ng/mL) were obtained by the same way as the calibration standards. All solutions were stored at −70 °C before use for no longer than 4 weeks.

In the case of `C=CC1(C)CC(OC(=O)CSc2nc(N)cc(N)n2)C2(C)C(C)CCC3(CCC(=O)C32)C(C)C1O` (centres unmarked) [DPTM, 14-O-[(4,6-Diaminopyrimidine-2-yl)thioacetyl] mutilin], the “Stability RE” value (Colon, 10 ng/mL, Freeze-thaw Cycles) is reported as 6.3%, the “Stability RE” value (Colon, 10 ng/mL, Long-term (−70 °C, 4 Weeks)) is reported as 4.8% and the “Stability RE” value (Colon, 200 ng/mL, Freeze-thaw Cycles) is reported as 7.2%. The “Stability RE” value (Colon, 200 ng/mL, Long-term (−70 °C, 4 Weeks)) was 2.2%, the “Stability RE” value (Colon, 200 ng/mL, Short-term (25 °C, 24 h)) was 6.8% and the “Stability RE” value (Colon, 3000 ng/mL, Freeze-thaw Cycles) was −4.3%. The “Stability RE” value (Colon, 3000 ng/mL, Long-term (−70 °C, 4 Weeks)) was 2.3%, the “Stability RE” value (Colon, 3000 ng/mL, Short-term (25 °C, 24 h)) was 7.3% and the “Stability RE” value (Fecal, 10 ng/mL, Freeze-thaw Cycles) was 4.8%. For the same compound, the “Stability RE” value (Fecal, 10 ng/mL, Long-term (−70 °C, 4 Weeks)) was 3.3%, the “Stability RE” value (Fecal, 10 ng/mL, Short-term (25 °C, 24 h)) was 3.2% and the “Stability RE” value (Fecal, 200 ng/mL, Freeze-thaw Cycles) was 3.6%. For the same compound, the “Stability RE” value (Fecal, 200 ng/mL, Long-term (−70 °C, 4 Weeks)) was 4.1%, the “Stability RE” value (Fecal, 200 ng/mL, Short-term (25 °C, 24 h)) was 2.9% and the “Stability RE” value (Fecal, 3000 ng/mL, Freeze-thaw Cycles) was 4.7%. For the same compound, the “Stability RE” value (Fecal, 3000 ng/mL, Long-term (−70 °C, 4 Weeks)) was 4.3%, the “Stability RE” value (Fecal, 3000 ng/mL, Short-term (25 °C, 24 h)) was 4.8% and the “Stability RE” value (Heart, 10 ng/mL, Freeze-thaw Cycles) was 3.5%. The “Stability RE” value (Heart, 10 ng/mL, Long-term (−70 °C, 4 Weeks)) was 3.3%, the “Stability RE” value (Heart, 10 ng/mL, Short-term (25 °C, 24 h)) was 3.9% and the “Stability RE” value (Heart, 200 ng/mL, Freeze-thaw Cycles) was −0.3%. The “Stability RE” value (Heart, 200 ng/mL, Long-term (−70 °C, 4 Weeks)) was −0.7%, the “Stability RE” value (Heart, 200 ng/mL, Short-term (25 °C, 24 h)) was −0.7% and the “Stability RE” value (Heart, 3000 ng/mL, Freeze-thaw Cycles) was 6.3%. For the same compound, the “Stability RE” value (Heart, 3000 ng/mL, Long-term (−70 °C, 4 Weeks)) was 6.5%, the “Stability RE” value (Heart, 3000 ng/mL, Short-term (25 °C, 24 h)) was 6.3% and the “Stability RE” value (Plasma, 10 ng/mL, Freeze-thaw Cycles) was 6.3%. The “Stability RE” value (Plasma, 10 ng/mL, Long-term (−70 °C, 4 Weeks)) was 5.8%, the “Stability RE” value (Plasma, 10 ng/mL, Short-term (25 °C, 24 h)) was 5.1% and the “Stability RE” value (Plasma, 200 ng/mL, Freeze-thaw Cycles) was 7.9%. The “Stability RE” value (Plasma, 200 ng/mL, Long-term (−70 °C, 4 Weeks)) was 7.3%, the “Stability RE” value (Plasma, 200 ng/mL, Short-term (25 °C, 24 h)) was 6.8% and the “Stability RE” value (Plasma, 3000 ng/mL, Freeze-thaw Cycles) was 1.7%. For the same compound, the “Stability RE” value (Plasma, 3000 ng/mL, Long-term (−70 °C, 4 Weeks)) was 2%, the “Stability RE” value (Plasma, 3000 ng/mL, Short-term (25 °C, 24 h)) was 1.5% and the “Stability RE” value (Urinary, 10 ng/mL, Freeze-thaw Cycles) was 8.1%. For the same compound, the “Stability RE” value (Urinary, 10 ng/mL, Long-term (−70 °C, 4 Weeks)) was 8.4%, the “Stability RE” value (Urinary, 10 ng/mL, Short-term (25 °C, 24 h)) was 6.6% and the “Stability RE” value (Urinary, 200 ng/mL, Freeze-thaw Cycles) was 4.2%. For the same compound, the “Stability RE” value (Urinary, 200 ng/mL, Long-term (−70 °C, 4 Weeks)) was −1.2%, the “Stability RE” value (Urinary, 200 ng/mL, Short-term (25 °C, 24 h)) was 5.3% and the “Stability RE” value (Urinary, 3000 ng/mL, Freeze-thaw Cycles) was −5.5%. The “Stability RE” value (Urinary, 3000 ng/mL, Long-term (−70 °C, 4 Weeks)) was −3.3% and the “Stability RE” value (Urinary, 3000 ng/mL, Short-term (25 °C, 24 h)) was −5.6%.
